In patent US20250152742A1, “COMPOSITIONS AND METHODS FOR NEUROLOGICAL DISEASES” (Trames Bio, Inc., priority 2022, published 2025):
Numbering of substitutions follows the chain as printed. Names and notes keep the numbering of the source.

B1: CODA335: engineered receptor: L131T in SEQ ID NO: 33 (protein)
chain: MRCSPGGVWLALAASLLHVSLQGEFQRKLYKELVKNYNPLERPVANDSQPLTVYFSLSLLQIMDVDEKNQVLTTNIWLQMSWTDHYLQWNVSEYPGVKTVRFPDGQIWKPDILLYNSADERFDATFHTNVTVNSSGHCQYLPPGIFKSSCPMDLKNFPMDVQTCKLKFGSWSYGGWSLDLQMQEADISGYIPNGEWDLVGIPGKRSERFYECCKEPYPDVTFTVTMRRRMGYYLIQMYIPSLLIVILSWISFWINMDAAPARVGLGITTVLTMTTQSSGSRASLPKVSYVKAIDIWMAVCLLFVFSALLEYAAVNFVSRQHKELLRFRRKRRHHKSPMLNLFQEDEAGEGRFNFSAYGMGPACLQAKDGISVKGANNSNTTNPPPAPSKSPEEMRKLFIQRAKKIDKISRIGFPMAFLIFNMFYWIIYKIVRREDVHNQ
modifications: synthetic sequence of chimeric LGIC
B2: CODA409: engineered receptor: Y210W in SEQ ID NO: 33 (protein)
chain: B1 chain with T131L, Y210W
modifications: synthetic sequence of chimeric LGIC
B3: CODA534: engineered receptor: L131S, S172D in SEQ ID NO: 33 (protein)
chain: B1 chain with T131S, S172D
modifications: synthetic sequence of chimeric LGIC
B4: CODA342: engineered receptor: L131R in SEQ ID NO: 33 (protein)
chain: B1 chain with T131R
modifications: synthetic sequence of chimeric LGIC
B5: CODA282: engineered receptor: Y115D in SEQ ID NO: 33 (protein)
chain: B1 chain with Y115D, T131L
modifications: synthetic sequence of chimeric LGIC
B6: CODA1025: engineered receptor: R101F, L131G in SEQ ID NO: 33 (protein)
chain: B1 chain with R101F, T131G
modifications: synthetic sequence of chimeric LGIC
B7: CODA1048: engineered receptor: R101F, Y210F in SEQ ID NO: 33 (protein)
chain: B1 chain with R101F, T131L, Y210F
modifications: synthetic sequence of chimeric LGIC
B8: CODA339: engineered receptor: L131D in SEQ ID NO: 33 (protein)
chain: B1 chain with T131D
modifications: synthetic sequence of chimeric LGIC
B9: CODA1053: engineered receptor: R101M, L131A in SEQ ID NO: 33 (protein)
chain: B1 chain with R101M, T131A
modifications: synthetic sequence of chimeric LGIC
B10: CODA806: engineered receptor: Y115D, L131Q in SEQ ID NO: 33 (Chemogenic receptor-11) (protein)
chain: B1 chain with Y115D, T131Q
modifications: synthetic sequence of chimeric LGIC
B11: CODA1054: engineered receptor: R101M, L131F in SEQ ID NO: 33 (protein)
chain: B1 chain with R101M, T131F
modifications: synthetic sequence of chimeric LGIC
B12: CODA807: engineered receptor: Y115D, L131E in SEQ ID NO: 33 (protein)
chain: B1 chain with Y115D, T131E
modifications: synthetic sequence of chimeric LGIC
B13: CODA1047: engineered receptor: R101F, Y210V in SEQ ID NO: 33 (protein)
chain: B1 chain with R101F, T131L, Y210V
modifications: synthetic sequence of chimeric LGIC
B14: CODA1045: engineered receptor: R101W, Y210V in SEQ ID NO: 33 (protein)
chain: B1 chain with R101W, T131L, Y210V
modifications: synthetic sequence of chimeric LGIC
B15: CODA952: engineered receptor: Y140I in SEQ ID NO: 33 (protein)
chain: B1 chain with T131L, Y140I
modifications: synthetic sequence of chimeric LGIC
B16: CODA535: engineered receptor: L131T, S172D in SEQ ID NO: 33 (protein)
chain: B1 chain with S172D
modifications: synthetic sequence of chimeric LGIC
B17: CODA536: engineered receptor: L131D, S172D in SEQ ID NO: 33 (protein)
chain: B1 chain with T131D, S172D
modifications: synthetic sequence of chimeric LGIC
B18: CODA333: engineered receptor: L131S in SEQ ID NO: 33 (protein)
chain: B1 chain with T131S
modifications: synthetic sequence of chimeric LGIC
B19: CODA1027: engineered receptor: R101F, L131D in SEQ ID NO: 33 (protein)
chain: B1 chain with R101F, T131D
modifications: synthetic sequence of chimeric LGIC
B20: CODA805: engineered receptor: Y115D, S170T in SEQ ID NO: 33 (protein)
chain: B1 chain with Y115D, T131L, S170T
modifications: synthetic sequence of chimeric LGIC
B21: CODA377: engineered receptor: S172D in SEQ ID NO: 33 (protein)
chain: B1 chain with T131L, S172D
modifications: synthetic sequence of chimeric LGIC
B22: CODA283: engineered receptor: Y115E_N379K in SEQ ID NO: 33 (protein)
chain: B1 chain with Y115E, T131L, N379K
modifications: synthetic sequence of chimeric LGIC

tested on: HEK293T cells; format: cell-based; settings: % HA-tag positive cells normalized to SEQ ID NO: 33 control, flow cytometry

Molecule | Normalized HA %
B1 | 2.00
B2 | 0.96
B3 | 0.47
B4 | 1.83
B5 | 0.91
B6 | 0.98
B7 | 1.05
B8 | 1.59
B9 | 1.31
B10 | 0.36
B11 | 0.96
B12 | 0.91
B13 | 1.13
B14 | 1.09
B15 | 1.41
B16 | 0.33
B17 | 0.40
B18 | 1.42
B19 | 0.61
B20 | 0.70
B21 | 0.36
B22 | 1.16

same assay, conditions: anti-HA fluorescence intensity normalized to SEQ ID NO: 33 control, flow cytometry

Molecule | Normalized HA MFI
B1 | 0.88
B2 | 1.09
B3 | 1.10
B4 | 0.74
B5 | 0.74
B6 | 0.63
B7 | 0.61
B8 | 0.79
B9 | 0.97
B10 | 0.83
B11 | 0.88
B12 | 1.00
B13 | 0.65
B14 | 0.87
B15 | 1.53
B16 | 0.86
B17 | 0.87
B18 | 0.76
B19 | 0.49
B20 | 0.94
B21 | 0.61
B22 | 1.00
